Results: PMC7819943, “Rice protein-binding microarrays: a tool to detect cis-acting elements near promoter regions in rice”
The list shows a part of the results.

Chains of the proteins cited; added tags and fusions are not shown.
UniProt Q0JBA9, entry or part of it: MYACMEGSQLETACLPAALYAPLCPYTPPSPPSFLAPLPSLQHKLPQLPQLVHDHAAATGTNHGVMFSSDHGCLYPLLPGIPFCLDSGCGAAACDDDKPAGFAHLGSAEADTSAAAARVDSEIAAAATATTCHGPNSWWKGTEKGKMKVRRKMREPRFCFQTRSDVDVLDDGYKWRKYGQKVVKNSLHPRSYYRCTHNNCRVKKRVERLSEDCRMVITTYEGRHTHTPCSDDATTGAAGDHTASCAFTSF

What follows are sequences tested against OsWRKY34 (Oryza sativa, UniProt Q0JBA9 1-250) (assay: protein-binding microarray (RPBM); PBS, 2% BSA, 51.3 ng/ul salmon testes DNA, 50 uM zinc acetate, 200 nM TF, 25 C, 1 h; high values mean tight binding). Conditions: protein: recombinant; tags: N-terminal polyhistidine and DsRed monomer fusion (pET32a); label: CyDye5-dUTP incorporated in the synthesized complementary strand; 3' TTTTT single-stranded linker to array surface; dsDNA, one strand shown.
Method in brief: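 A custom Agilent array was converted to double-stranded form by primer extension with Cy5-dUTP and blocked with 2% BSA. Protein at 200 nM in PBS with 2% BSA, salmon testes DNA and 50 µM zinc acetate was applied for 1 h at 25 °C, followed by washing. The proteins were polyhistidine–DsRed N-terminal fusions of transcription factors, expressed in E. coli BL21-CodonPlus and Ni–NTA-purified. The binding signal is per-feature fluorescence intensity (arbitrary units) from an Axon 4000B scanner.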
“CATTGGGGAGGCTGACTGTAACACCGTGTATGCGTCGCATCGGAGTCACCTAGTGCAG” was tested, and the binding signal was 8240 fluorescence intensity (a.u.).
With “GAGGTAGTGGTTTAGAGGAGGAGGCGGAGAAGAGGAGGGACGGAGTCACCTAGTGCAG” the binding signal was 9020 fluorescence intensity (a.u.).
In the case of “TTCGCCATTTCCAACCCGTCGTCTCGCCTTCGCCTCGCCTCGGAGTCACCTAGTGCAG”, the binding signal is reported as 9310 fluorescence intensity (a.u.).
“GAAACCAATTGTCATATGTGGGTCCCATCATCTGACCCTCCGGAGTCACCTAGTGCAG” was tested, and the binding signal was 8230 fluorescence intensity (a.u.).
“ATATATTGTGTTGTTACGGAGCGAGTTTTCCCATTGACCTCGGAGTCACCTAGTGCAG” was tested, and the binding signal was 9970 fluorescence intensity (a.u.).
“GTATGCGAGATGAATATTGTCCTGGTTCTTTTAACGCCGTCGGAGTCACCTAGTGCAG” was tested, and the binding signal was 9550 fluorescence intensity (a.u.).
With “GTGAAACCGGTCGGTCACCCATCCCTTGTCCTCAGGTCCCCGGAGTCACCTAGTGCAG” the binding signal was 8570 fluorescence intensity (a.u.).
With “CCACATTCGGCGTCGCACTCCTTCGTCTTCGCGTGATCCGCGGAGTCACCTAGTGCAG” the binding signal was 11800 fluorescence intensity (a.u.).
“ATGTGAACTCGTGTCTTTTTGCGGAAACTGTATGTTTAAACGGAGTCACCTAGTGCAG” was tested, and the binding signal was 8160 fluorescence intensity (a.u.).
In the case of “CTCTCACTCTAATCATGCATTTAGACCGTTTCCATTTGCTCGGAGTCACCTAGTGCAG”, the binding signal is reported as 12200 fluorescence intensity (a.u.).
“TTTGCATTTGTTTTTGATAATTTTGTTTCTGATTTCAGCTCGGAGTCACCTAGTGCAG” was tested, and the binding signal was 8520 fluorescence intensity (a.u.).
For “TCCTGCACTCACCTTCCATTCTTCTCCTGCTAAGCTCCAGCGGAGTCACCTAGTGCAG”, the binding signal was 8610 fluorescence intensity (a.u.).
For “GGGCGGAGCGGGGCGGAGGGAGAGGAGGGAGAGGAGGGAGCGGAGTCACCTAGTGCAG”, the binding signal was 8480 fluorescence intensity (a.u.).
With “CCGCTCTCCCTTTGCCACCATCTCCGCTCCCGACACACACCGGAGTCACCTAGTGCAG” the binding signal was 8840 fluorescence intensity (a.u.).
In the case of “CCCGAACCCACCACCTCCGCCCATTTCCGCCTCCTCTCGACGGAGTCACCTAGTGCAG”, the binding signal is reported as 9190 fluorescence intensity (a.u.).
In the case of “CAACATGCATCCTAATGACAGCTACTGATCCTTCTAATCACGGAGTCACCTAGTGCAG”, the binding signal is reported as 8640 fluorescence intensity (a.u.).
With “AGGCTTTATGTTTTTGTTAGGTCTGCACATCTGAAAGCTTCGGAGTCACCTAGTGCAG” the binding signal was 8600 fluorescence intensity (a.u.).
For “GCCTGCTGTATATTTCTTTCTTATTGATGTCTCCATGAATCGGAGTCACCTAGTGCAG”, the binding signal was 9560 fluorescence intensity (a.u.).
With “TTTTTCTTTACCCATTTTTTTTCGCTTTTTCCTTTTTTCTCGGAGTCACCTAGTGCAG” the binding signal was 11800 fluorescence intensity (a.u.).
For “AGTCTCAGTATAATTTGGTCGTGCTGTCGTGGTACAAATCCGGAGTCACCTAGTGCAG”, the binding signal was 8640 fluorescence intensity (a.u.).
In the case of “GGGATTCGTGGGGATAATATGGGTTTATATGGAGTAAGGTCGGAGTCACCTAGTGCAG”, the binding signal is reported as 13800 fluorescence intensity (a.u.).
“TGGCTTCATTCCGCTTTTCCTACATGCACTGTTGACCTTGCGGAGTCACCTAGTGCAG” was tested, and the binding signal was 10700 fluorescence intensity (a.u.).
In the case of “ATGTATTTCTTGCTTTATTCTCTCTTCGAACAGTGTTCTACGGAGTCACCTAGTGCAG”, the binding signal is reported as 8940 fluorescence intensity (a.u.).
In the case of “AGAGATCGGGGTTTGGTTTTTTGGAGGGGAGAGCGGAGTGCGGAGTCACCTAGTGCAG”, the binding signal is reported as 10200 fluorescence intensity (a.u.).
For “CACCGCAACAGTTTCACTAATCACCAGTCATTACACTCTGCGGAGTCACCTAGTGCAG”, the binding signal was 8690 fluorescence intensity (a.u.).
For “CTCCCACCACCGCGCTTGCCTCCGGCCCCGTGCCGCGCTGCGGAGTCACCTAGTGCAG”, the binding signal was 8770 fluorescence intensity (a.u.).
With “TGCCAAGCACACACACCATCTGCATCTTCTCTTCTACCATCGGAGTCACCTAGTGCAG” the binding signal was 8160 fluorescence intensity (a.u.).
“AGTTCCTTCATCTGTCATCAAGCTTCAAACCGTTCCTAAACGGAGTCACCTAGTGCAG” was tested, and the binding signal was 10100 fluorescence intensity (a.u.).
In the case of “CAGCTCCCACCGCGCACCATCATCGCCGCACCCTCGCTCTCGGAGTCACCTAGTGCAG”, the binding signal is reported as 9710 fluorescence intensity (a.u.).
“TGGGTGGGCATCAATCTAGACCCAGTCCACGTACGTGGGGCGGAGTCACCTAGTGCAG” was tested, and the binding signal was 8600 fluorescence intensity (a.u.).
For “ATTCCTTCGTTTTTCCTGTGGTCCAATCAAACGGCCATTCCGGAGTCACCTAGTGCAG”, the binding signal was 10100 fluorescence intensity (a.u.).
For “GCTACTATCAAGTCATAAGCTTACTACCAAGTTATAGCACCGGAGTCACCTAGTGCAG”, the binding signal was 8320 fluorescence intensity (a.u.).
With “GCTCCATCTTACCTCCATTTTATTTCCAGGTTTCTTTACTCGGAGTCACCTAGTGCAG” the binding signal was 12300 fluorescence intensity (a.u.).
For “GGGTTTTATTTATTCCGATAAATTTTCGTTACTGTATTCGCGGAGTCACCTAGTGCAG”, the binding signal was 9750 fluorescence intensity (a.u.).
“ATTTACATATTCCATCACAAAAAGTCGTATCTTGCGCCTACGGAGTCACCTAGTGCAG” was tested, and the binding signal was 8460 fluorescence intensity (a.u.).
With “AGAAACACCATGTCCCCTTCAATATGCATACAGCAACTTACGGAGTCACCTAGTGCAG” the binding signal was 9000 fluorescence intensity (a.u.).
In the case of “ACCTTTACTATAATAATACTGGACCCACATTTCATAGATACGGAGTCACCTAGTGCAG”, the binding signal is reported as 8070 fluorescence intensity (a.u.).
In the case of “CTTGTTCCATGTTAGTTCGAGCGCACACACACAATCACACCGGAGTCACCTAGTGCAG”, the binding signal is reported as 8350 fluorescence intensity (a.u.).
In the case of “GAGCCATCCACACTCTCTCAGTGGCTTTCCTCGCGATCCGCGGAGTCACCTAGTGCAG”, the binding signal is reported as 8870 fluorescence intensity (a.u.).
In the case of “CCAATAAGTGTGACATTCAATTCCTACGTTTTTTCTATTCCGGAGTCACCTAGTGCAG”, the binding signal is reported as 8200 fluorescence intensity (a.u.).
“ACTGTCCTGTCGTTAATTCATGAGTTAATCCTATACGGTTCGGAGTCACCTAGTGCAG” was tested, and the binding signal was 10500 fluorescence intensity (a.u.).
“CTTCAGTCACGGCCCTATTGTACTGTTCCCAGTTACACCCCGGAGTCACCTAGTGCAG” was tested, and the binding signal was 8720 fluorescence intensity (a.u.).
